One data set has as its system humans. Conditions: known toxicity in humans, ref TOXNET (HSDB), Side effects (EMBL), drugs.com, cited from earlier work.
The test system of another data set is zebrafish larvae heart. Description: ZeGlobalTox cardiotoxicity evaluation (heart video, ZeCardio software). Conditions: 100 hpf, 4 h after drug incubation at NOEC (haloperidol 10 µM). Type of data set: in vivo, zebrafish (Danio rerio). As for the experimental part: Four cardiac parameters were evaluated to assess whether a compound was cardiotoxic: heart rate (beats per minute, BPM), QTc prolongation, ejection fraction (EJF), and cardiac arrest. […] 1% DMSO was used as the negative control.
Cardiotoxicity evaluation was performed from 96 hpf, when the zebrafish heartbeat is already stabilised, so the analysis might not be altered by unstable beating. Zebrafish hearts were video-recorded at 4 h after drug incubation (100 hpf) and analysed using the ZeCardio® β software (Figure 3A).
After 4 h of drug incubation (100 hpf), zebrafish larvae were anesthetized by immersion in […] tricaine methanesulfonate (A4050, Sigma-Aldrich, Saint Louis, MO, USA)/E3 solution. […] Embryos were positioned in an agarose based mold to allow their appropriate orientation under the fluorescence stereo microscope (Olympus MVX10). Individual fluorescent hearts were recorded during 60 s each (Figure 6A). Videos were acquired with a high-speed recording camera (Hamamatsu C11440 ORCA-flash 2.8) and analysed with the ZeCardio® β software to extract different cardiac parameters—heart rate, cardiac arrest, QTc prolongation, and Ejection Fraction (EJF) (Figure 6B). […]
Heart beat frequency for each chamber is detected and frequencies are presented in the GUI as a mean. […] In the same fashion, chamber specific cardiac arrest is measured as the longest beating pause (Figure 6H). […]

The nature of the next data set: in vivo. Type of data set: in vivo. The note with it: zebrafish, in vivo; mortality; embryos incubated 3 to 96 hpf; 5 logarithmic concentrations 0.1 µM to 1 mM; 1% DMSO. From the text: (§1) Several issues were considered when planning the experimental protocol. The main concern was that drug-induced mortality and/or developmental toxicity (teratogenicity) could mask possible organ-toxicities appearing later in development. […] This preliminary assay allowed for the identification of non-mortal/non-teratogenic concentrations—no observed effect concentration (NOEC)—to use in the following assays. The hypothesis is that NOEC could affect organ physiology (organ toxicity), while uncoupled from putative developmental toxicity side-effects affecting organ development or function. Another consideration was to start drug incubations at 96 hours post fertilization (hpf), when the analysed organs are close to or already developed (Figure 1B). The overall aim is to understand the drug impact on organ physiology and function rather than early embryogenesis. The third consideration was to organize the sequential organ evaluation during the experimental and drug incubation time.
(§2) 1% DMSO, which is the constant solvent concentration in all conditions, was used as the negative control.
(§3) Thus, 20 wild type (wt) zebrafish embryos per condition were incubated with tested compounds from 3 to 96 hpf. The test was performed in 5 logarithmic concentrations per drug (from 0.1 µM to 1 mM). Each larva was analysed for mortality, body deformity, edema, tail detachment, pigmentation, heart activity, heart edema, and motor activity. […] DMSO 1% was used as the negative control in all experiments.

The test system of data set [1] is wild type zebrafish embryos. Briefly: in vivo. Type of data set: in vivo. Conditions: embryos incubated 3 to 96 hpf; 5 logarithmic concentrations 0.1 µM to 1 mM; 1% DMSO.
Text: as §1, §2, §3

As usually defined, the LC50 is the concentration that kills 50% of the test population. A lower LC50 goes with a more lethal substance. As to `Nc1nc2ccc(OC(F)(F)F)cc2s1` [Riluzole, riluzole], in the data set on humans ([22],[30],[31],[34],[35]), the “Neurotoxicity (toxicity in humans)” value was “Safe”. Moreover, the “Cardiotoxicity (toxicity in humans)” value in the data set with humans (ema.europa, [19],[20],[21]) was “Toxic ^2,3”. In addition, the “Hepatotoxicity (toxicity in humans)” value with humans (ema.europa, [24],[26],[27],[32],[33]) is recorded as “Toxic ^2,3”. Besides, in the data set on zebrafish larvae heart, the “Heart rate (beats per minute) compared to DMSO-only” value is on record as “decreased the heart rate” and the “Longest cardiac arrest compared to DMSO-only” value was “Longer cardiac arrest”. The compound further had an LC50 in the data set “in vivo” of 13.7 µM. Also, in data set [1], the “96 hpf LOEC” value is on record as 10 µM and the “96 hpf NOEC” value is given as 1 µM.

The values above are taken from paper PMC5412445, “ZeGlobalTox: An Innovative Approach to Address Organ Drug Toxicity Using Zebrafish” (International Journal of Molecular Sciences, 2017).
